# Assay results: paper PMC7819943, “Rice protein-binding microarrays: a tool to detect cis-acting elements near promoter regions in rice”
# Chains of the proteins cited; added tags and fusions are not shown.
# UniProt Q0JBA9, entry or part of it: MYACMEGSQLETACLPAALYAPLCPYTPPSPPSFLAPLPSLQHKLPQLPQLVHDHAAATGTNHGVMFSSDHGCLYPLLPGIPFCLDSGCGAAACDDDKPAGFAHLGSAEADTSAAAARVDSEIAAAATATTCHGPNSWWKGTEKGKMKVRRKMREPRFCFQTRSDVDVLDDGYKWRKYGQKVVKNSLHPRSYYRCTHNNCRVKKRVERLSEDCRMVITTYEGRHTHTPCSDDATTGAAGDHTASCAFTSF
# The other results are listed elsewhere or left out.
# Molecular target: OsWRKY34 (Oryza sativa, UniProt Q0JBA9 1-250)
# Experiment: protein-binding microarray (RPBM); PBS, 2% BSA, 51.3 ng/ul salmon testes DNA, 50 uM zinc acetate, 200 nM TF, 25 C, 1 h; high values mean tight binding
# Settings: protein: recombinant; tags: N-terminal polyhistidine and DsRed monomer fusion (pET32a); label: CyDye5-dUTP incorporated in the synthesized complementary strand; 3' TTTTT single-stranded linker to array surface; dsDNA, one strand shown
# In short: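 Polyhistidine-tagged DsRed fusions of transcription factors, joined at the N-terminus, were expressed in E. coli BL21-CodonPlus and isolated on Ni–NTA. They were incubated at 200 nM for 1 h at 25 °C on a custom Agilent array, double-stranded and BSA-blocked, in PBS with 2% BSA, salmon testes DNA and 50 µM zinc acetate. The binding signal is per-feature fluorescence intensity (arbitrary units) read on an Axon 4000B scanner after washing.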
row,Sequence,binding signal
1,CGCATCTGACGGTTCGGCTGTTCGATTGGTTGGTTTTGAACGGAGTCACCTAGTGCAG,8870 fluorescence intensity (a.u.)
2,TTTAGGTGTCACATTGAACGTTTGACCAGATATCGGAAGGCGGAGTCACCTAGTGCAG,10500 fluorescence intensity (a.u.)
3,GATCGAATCGAATAGAGTACATTCTCTACAGGGGAGGGGACGGAGTCACCTAGTGCAG,9760 fluorescence intensity (a.u.)
4,TTCTTAATTTCTTCTTTCAGGTCATGTGCATCCATATTGTCGGAGTCACCTAGTGCAG,9680 fluorescence intensity (a.u.)
5,ATGGGTTGGTAGAGGGGAGGGAACGCGCGACGGTGGCGAGCGGAGTCACCTAGTGCAG,8740 fluorescence intensity (a.u.)
6,CGCCGCCTCCGCCTCGCACAGCCGCCATCCCCGCCTCCGCCGGAGTCACCTAGTGCAG,9500 fluorescence intensity (a.u.)
7,GCACTTCCAATTTTATTTCAAATGGTGCAAGTCACAATGTCGGAGTCACCTAGTGCAG,9180 fluorescence intensity (a.u.)
8,CTCCTCTAACTAACATAACTTCCCACTGACGTGGTCATTTCGGAGTCACCTAGTGCAG,9310 fluorescence intensity (a.u.)
9,GCAGCTTTCCACTATACTACCACCACCACTGAGCTGCCACCGGAGTCACCTAGTGCAG,8490 fluorescence intensity (a.u.)
10,CTGCGGCGGTCGACGACACGTTGGTTGGCCGGAGCTGGAACGGAGTCACCTAGTGCAG,10700 fluorescence intensity (a.u.)
11,GACATGTGGCTTAATTTCCGCGTTTCTTGAATCGGTTTCTCGGAGTCACCTAGTGCAG,12300 fluorescence intensity (a.u.)
12,TCCACGGTTGTTGCGAGCTGCCTTTGTGCCTACCCAAAAACGGAGTCACCTAGTGCAG,8360 fluorescence intensity (a.u.)
13,GAGGCGTGCGGGATGGTGTGGGTTAATCTGGGATAAGGATCGGAGTCACCTAGTGCAG,8230 fluorescence intensity (a.u.)
14,CACCTTTTCTTGGCATCGCACCACGCACACAACCAAAACCCGGAGTCACCTAGTGCAG,9470 fluorescence intensity (a.u.)
15,TGATGGGCGATCGATCGCTATGGGGATGGGGTAGCGATCGCGGAGTCACCTAGTGCAG,8110 fluorescence intensity (a.u.)
16,CCCTTCGTTTCACAATGTAAGTCATTCTAGCATTTCTCACCGGAGTCACCTAGTGCAG,8600 fluorescence intensity (a.u.)
17,TAATTTTTATAGGCCTGTTCATATTTTCTACCGTTGATTTCGGAGTCACCTAGTGCAG,10300 fluorescence intensity (a.u.)
18,GTCACGCCGAGCTACTTACCTCCGCGAGCGGCCACAACTCCGGAGTCACCTAGTGCAG,8370 fluorescence intensity (a.u.)
19,CAATTCTCGCATGTCTGACCTCCATTCCAGCATTCAAATTCGGAGTCACCTAGTGCAG,8660 fluorescence intensity (a.u.)
20,TTGACTAGCTAGTCAGATTCTTCTTCGCTATTGCTGTCCTCGGAGTCACCTAGTGCAG,8500 fluorescence intensity (a.u.)
21,GGTTAGGGTTTATGGGGTGGAGTGGCGGCGGCGGCGACGACGGAGTCACCTAGTGCAG,13400 fluorescence intensity (a.u.)
22,ACATGTAACAGGACTAGACCATCTTGTTCATTTCCCGCACCGGAGTCACCTAGTGCAG,8190 fluorescence intensity (a.u.)
23,TTACCATCTATATACCTACGTCTTATCTGTATCAACTTTTCGGAGTCACCTAGTGCAG,12600 fluorescence intensity (a.u.)
24,TTTATTTCCTAGATTAATTCTGATATGTTTCTATGTTTTACGGAGTCACCTAGTGCAG,9260 fluorescence intensity (a.u.)
25,TTCTTTTTTTCTTTTTTTTACAATTTGTGATTCAGCGAGACGGAGTCACCTAGTGCAG,8360 fluorescence intensity (a.u.)
26,CTCCTCCTCCTCCTCCACCGCCGCCGCCGACGCCGCACTCCGGAGTCACCTAGTGCAG,8250 fluorescence intensity (a.u.)
27,CAAAGCAACCTTGGAGTAATCTCCATTTCCATGTCCTATTCGGAGTCACCTAGTGCAG,8220 fluorescence intensity (a.u.)

# In a second layout: entries from further up.
row	Sequence	binding signal
10	CTGCGGCGGTCGACGACACGTTGGTTGGCCGGAGCTGGAACGGAGTCACCTAGTGCAG	10700 fluorescence intensity (a.u.)
11	GACATGTGGCTTAATTTCCGCGTTTCTTGAATCGGTTTCTCGGAGTCACCTAGTGCAG	12300 fluorescence intensity (a.u.)
12	TCCACGGTTGTTGCGAGCTGCCTTTGTGCCTACCCAAAAACGGAGTCACCTAGTGCAG	8360 fluorescence intensity (a.u.)
13	GAGGCGTGCGGGATGGTGTGGGTTAATCTGGGATAAGGATCGGAGTCACCTAGTGCAG	8230 fluorescence intensity (a.u.)
14	CACCTTTTCTTGGCATCGCACCACGCACACAACCAAAACCCGGAGTCACCTAGTGCAG	9470 fluorescence intensity (a.u.)
15	TGATGGGCGATCGATCGCTATGGGGATGGGGTAGCGATCGCGGAGTCACCTAGTGCAG	8110 fluorescence intensity (a.u.)
16	CCCTTCGTTTCACAATGTAAGTCATTCTAGCATTTCTCACCGGAGTCACCTAGTGCAG	8600 fluorescence intensity (a.u.)
17	TAATTTTTATAGGCCTGTTCATATTTTCTACCGTTGATTTCGGAGTCACCTAGTGCAG	10300 fluorescence intensity (a.u.)
18	GTCACGCCGAGCTACTTACCTCCGCGAGCGGCCACAACTCCGGAGTCACCTAGTGCAG	8370 fluorescence intensity (a.u.)
19	CAATTCTCGCATGTCTGACCTCCATTCCAGCATTCAAATTCGGAGTCACCTAGTGCAG	8660 fluorescence intensity (a.u.)
20	TTGACTAGCTAGTCAGATTCTTCTTCGCTATTGCTGTCCTCGGAGTCACCTAGTGCAG	8500 fluorescence intensity (a.u.)
21	GGTTAGGGTTTATGGGGTGGAGTGGCGGCGGCGGCGACGACGGAGTCACCTAGTGCAG	13400 fluorescence intensity (a.u.)
22	ACATGTAACAGGACTAGACCATCTTGTTCATTTCCCGCACCGGAGTCACCTAGTGCAG	8190 fluorescence intensity (a.u.)
23	TTACCATCTATATACCTACGTCTTATCTGTATCAACTTTTCGGAGTCACCTAGTGCAG	12600 fluorescence intensity (a.u.)
24	TTTATTTCCTAGATTAATTCTGATATGTTTCTATGTTTTACGGAGTCACCTAGTGCAG	9260 fluorescence intensity (a.u.)
25	TTCTTTTTTTCTTTTTTTTACAATTTGTGATTCAGCGAGACGGAGTCACCTAGTGCAG	8360 fluorescence intensity (a.u.)
26	CTCCTCCTCCTCCTCCACCGCCGCCGCCGACGCCGCACTCCGGAGTCACCTAGTGCAG	8250 fluorescence intensity (a.u.)

# (further entries)

row,Sequence,binding signal
1,GGTGGCTCATCACATCCACACAAGTTATCTACCTGTTCACCGGAGTCACCTAGTGCAG,12000 fluorescence intensity (a.u.)
2,GCCGCCAGCCAAGCCAGCTCCTGCGCCTTTGTTCCCATGCCGGAGTCACCTAGTGCAG,8640 fluorescence intensity (a.u.)
3,ACTTTTCCATCACATCGTTCCAATTTCAACCAAACTTCCACGGAGTCACCTAGTGCAG,9720 fluorescence intensity (a.u.)
4,TATCCATGCATGATAAGTCATAACTATAGTATTGACTTCTCGGAGTCACCTAGTGCAG,14400 fluorescence intensity (a.u.)
5,TCTCTACTCCCATTGTTAACACACAGCATGTCAAAATCTACGGAGTCACCTAGTGCAG,8380 fluorescence intensity (a.u.)
6,GGCCAGAATCCAGATACCATGCATGTCCTTTTTCCGATCGCGGAGTCACCTAGTGCAG,8350 fluorescence intensity (a.u.)
7,TCTTCCAACCGGCCAACGCGTCAACCCTAGCGATCATCCACGGAGTCACCTAGTGCAG,8970 fluorescence intensity (a.u.)
8,CATATATATTGTGATGGTTGATAGCATATGGCTTATCTCACGGAGTCACCTAGTGCAG,9990 fluorescence intensity (a.u.)
9,GACCGCTTCCACCACCGCCTCTCCTCTTCTCTTCTCCACTCGGAGTCACCTAGTGCAG,12100 fluorescence intensity (a.u.)
10,ATGGTTTGACGCAGCCCCGTCCTGTTGACTCACCTGACCGCGGAGTCACCTAGTGCAG,12600 fluorescence intensity (a.u.)
11,CTTGGATTCTGAGGTGGGCTTGAACTTGATATGAATTAGGCGGAGTCACCTAGTGCAG,8100 fluorescence intensity (a.u.)
12,TTCTTTCTTTTTTTGCGGGGCTGAATCATATCTATTCATTCGGAGTCACCTAGTGCAG,10800 fluorescence intensity (a.u.)
13,AGGGTGGGATGGGCGCTTAGAGACATATTTTAGCATGAATCGGAGTCACCTAGTGCAG,12000 fluorescence intensity (a.u.)
14,CATTTGCCATATCGGCTCAATCAAACTCTGACTTTGTTTCCGGAGTCACCTAGTGCAG,8380 fluorescence intensity (a.u.)
15,TCGTCGCCAACTCGTTCCGCCGCATCCCCGACAGGTCGACCGGAGTCACCTAGTGCAG,8990 fluorescence intensity (a.u.)
16,ACCATATGCATCTGAATTTGTTCTGAGTATACTCCATTTCCGGAGTCACCTAGTGCAG,10600 fluorescence intensity (a.u.)
17,AAACTTTGCGCAAGCATGTATGGATCGTTCATTCGTTTTACGGAGTCACCTAGTGCAG,8160 fluorescence intensity (a.u.)
18,GGGGATTTTCATTTTTTGTTTTGTTTTGAAGCTTTCGCTACGGAGTCACCTAGTGCAG,14700 fluorescence intensity (a.u.)
19,GACTTCTATTCTTGGTTCAGCACACTCCTCCATAGAAGCACGGAGTCACCTAGTGCAG,8760 fluorescence intensity (a.u.)
20,GTTGGTCTTTCATCATTTTCCACGTACAACCGCATGACGCCGGAGTCACCTAGTGCAG,10300 fluorescence intensity (a.u.)
21,ATAATTAGATCTTTGGTTCTGTCGTTATTCAGTTTTTTCACGGAGTCACCTAGTGCAG,8610 fluorescence intensity (a.u.)
22,GCCCATTTAACTCCCAAAGCCCGCAACTAAAATCACGGCCCGGAGTCACCTAGTGCAG,8570 fluorescence intensity (a.u.)
23,AGAGCTTGTGTGGTGGTGGGGCATCAGTGTGTCAGTTGTGCGGAGTCACCTAGTGCAG,17100 fluorescence intensity (a.u.)
24,AACTGGATTTTTCCCGCCGGTTATTCGAATCGGGAACGCTCGGAGTCACCTAGTGCAG,9640 fluorescence intensity (a.u.)
25,CTCAGTAATCACTTCGCACATTAACTCTCTCTCTCTTTCTCGGAGTCACCTAGTGCAG,8910 fluorescence intensity (a.u.)
26,GTCGTGCCTATCTATCAGCAGCCTTGCCTGCGTGTATCGCCGGAGTCACCTAGTGCAG,8770 fluorescence intensity (a.u.)
27,TTCTTTGGATTTGATTGGTGCCGCCTTTTTTCGCTATTGACGGAGTCACCTAGTGCAG,15600 fluorescence intensity (a.u.)
